Measurements: paper PMC12318970
Construct, isoform or probe ends are uncertain for at least one entry. Results from cells or extracts need not show a direct contact. At least one verdict was read from the data and is not stated in words by the source.

The chains behind the UniProt entries cited, without tags or fusion partners. Residues count along the entry.
UniProt P18627, 23-525: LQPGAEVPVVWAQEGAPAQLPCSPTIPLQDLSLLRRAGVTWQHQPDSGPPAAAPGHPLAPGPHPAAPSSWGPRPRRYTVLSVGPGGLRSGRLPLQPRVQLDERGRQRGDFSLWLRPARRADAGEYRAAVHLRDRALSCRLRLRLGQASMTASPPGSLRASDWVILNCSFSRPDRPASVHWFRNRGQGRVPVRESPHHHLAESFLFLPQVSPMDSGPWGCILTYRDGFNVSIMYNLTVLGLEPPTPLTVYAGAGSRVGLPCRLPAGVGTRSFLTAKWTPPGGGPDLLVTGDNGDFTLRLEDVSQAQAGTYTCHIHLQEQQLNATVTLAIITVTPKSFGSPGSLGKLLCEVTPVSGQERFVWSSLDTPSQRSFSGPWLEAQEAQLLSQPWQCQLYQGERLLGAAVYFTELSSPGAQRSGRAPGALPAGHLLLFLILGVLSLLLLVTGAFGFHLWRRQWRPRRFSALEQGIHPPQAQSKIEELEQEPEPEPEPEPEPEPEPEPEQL

Key:
HER2 on HepG2 cells [1] = molecular target: HER2 on HepG2 cells (UniProt P04626); assay: flow cytometry; details: 500 nM aptamer, HepG2 cells, reduced by anti-HER2 antibody, PBS, 4x10^5 cells in 500 uL, 30 min (flow cytometry, temperature not stated), microscopy at 37 C, protein on the cell surface, label: Cy5, single-stranded DNA
HER2 on A549 cells [2] = molecular target: HER2 on A549 cells (UniProt P04626); assay: flow cytometry; details: 500 nM aptamer, A549 cells, reduced by anti-HER2 antibody, PBS, 4x10^5 cells in 500 uL, 30 min (flow cytometry, temperature not stated), microscopy at 37 C, protein on the cell surface, label: Cy5, single-stranded DNA
LAG3 on Jurkat cells [3] = molecular target: LAG3 on Jurkat cells (UniProt P18627); assay: flow cytometry; details: 500 nM aptamer, Jurkat cells, reduced by anti-LAG3 antibody, PBS, 4x10^5 cells in 500 uL, 30 min (flow cytometry, temperature not stated), microscopy at 37 C, protein on the cell surface, label: Cy3, single-stranded DNA
HER2 on HepG2 cells [4] = molecular target: HER2 on HepG2 cells (UniProt P04626); assay: competition with a labelled probe; details: competes with 500 nM Cy5-HER2-apt on HepG2 cells (flow cytometry), Cy7-HLB-apt signal by microscopy, PBS, 500 nM aptamer, 4x10^5 cells in 500 uL, 30 min (flow cytometry, temperature not stated), microscopy at 37 C, protein on the cell surface, label: Cy7 (microscopy), unlabelled competitor, single-stranded DNA
HER2 on A549 cells [5] = molecular target: HER2 on A549 cells (UniProt P04626); assay: competition with a labelled probe; details: competes with 500 nM Cy5-HER2-apt on A549 cells (flow cytometry), Cy7-HLB-apt signal by microscopy, PBS, 500 nM aptamer, 4x10^5 cells in 500 uL, 30 min (flow cytometry, temperature not stated), microscopy at 37 C, protein on the cell surface, label: Cy7 (microscopy), unlabelled competitor, single-stranded DNA
LAG3 on Jurkat cells [6] = molecular target: LAG3 on Jurkat cells (UniProt P18627); assay: competition with a labelled probe; details: competes with 500 nM Cy3-LAG3-apt on Jurkat cells (flow cytometry), Cy7-HLB-apt signal by microscopy, PBS, 500 nM aptamer, 4x10^5 cells in 500 uL, 30 min (flow cytometry, temperature not stated), microscopy at 37 C, protein on the cell surface, label: Cy7 (microscopy), unlabelled competitor, single-stranded DNA

“AGCCGCGAGGGGAGGGATAGGGTAGGGCGCGGCT [HER2-apt (2#)]”: binds (HER2 on HepG2 cells [1]); binds (HER2 on A549 cells [2]).
“GGGAGAGAGATATAAGGGCCTCCTGATACCCGCTGCTATCTGGACCGATCCCATTACCAAATTCTCTCCC [LAG3-apt (1#)]”: binds (LAG3 on Jurkat cells [3]).
“GGGAGAGAGATATAAGGGCCTCCTGATACCCGCTGCTATCTGGACCGATCCCATTACCAAATTCTCTCCCTTTTTTTTTTAGCCGCGAGGGGAGGGATAGGGTAGGGCGCGGCT [HLB-apt (LAG3-apt 1# - T10 - HER2-apt 2#)]”: binds (HER2 on HepG2 cells [4]); binds (HER2 on A549 cells [5]); binds (LAG3 on Jurkat cells [6]).
